PubChem BioAssay AID1671195 | Yale University | 2021
In all, the deposit lists about 22,000 reagents; below is a part drawn at random. Over the whole deposit, about 1,510 (6.9%) are marked active. 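Active includes knockdowns raising or lowering LDL uptake; positive z-scores mean more uptake, negative mean less.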

Screen: 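Regulators of LDL receptor activity judged by labelled LDL uptake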 (primary screen)
Cell system: human Huh7 hepatoma cells
Reagent: siRNA pool against human genes, 18 nM
Duration: about 2 to 2.5 days of knockdown, then 8 h LDL uptake
Treatment: DiI-labelled LDL at 30 µg/ml for 8 h, in lipoprotein-deficient serum medium
Measured: 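Per-cell DiI-LDL intensity by automated imaging; well means scaled to the plate median and given as a robust z-score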
Scale: robust z-score: higher = more LDL uptake after knockdown
Rule for the call: 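Active when two or more replicates show a robust z-score above 2 or below -2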

gene knocked down	robust z-score, replicate 1	robust z-score, replicate 2	robust z-score, replicate 3	call
INE1	-0.497	-0.472	0.349	inactive
ZNF814	-1.04	-1.22	-1.09	inactive
NSG1	0.0551	0.165	0.559	inactive
PRRX1	-1	-1.26	-1.76	inactive
LOC441306 (retired record)	0.901	1.35	1.16	inactive
KCNG2	-1.8	-1.55	-1.62	inactive
CDKN2A	0.693	0.255	0.793	inactive
SUMO3	1.49	2.2	1.06	inactive
TTR	-0.163	-2.05	-1.4	inactive
MKX	1.78	1.41	-0.0789	inactive
LPAR1	-0.376	-0.164	-0.12	inactive
IFNA1	1.14	1.79	0.895	inactive
MLIP	-0.128	-0.412	-0.821	inactive
ZBTB3	1.13	0.535	0.178	inactive
MDH1	-1.27	-1.13	-1.15	inactive
XPA	-0.309	-0.0913	0.276	inactive
AADAC	1.75	3.13	1.47	inactive
COXFA4L3	0.0705	0.118	-0.267	inactive
FGB	0.0943	-0.528	1.01	inactive
NYAP2	1.44	1.39	0.846	inactive
LOC401256 (retired record)	1.08	0.279	0.334	inactive
CUEDC2	0.0482	-0.454	0.112	inactive
HGSNAT	-0.00757	-0.783	0.274	inactive
LOC389319 (retired record)	-0.738	-0.456	-0.726	inactive
LOC440803 (retired record)	-0.648	-1.04	-1.01	inactive
BMPR1B	0.719	0.482	0.458	inactive
MDC1	1.59	0.21	-0.375	inactive
SLC41A1	-0.485	-0.0932	0.113	inactive
PROCA1	1.45	2.33	3.18	active
SPAG6	-1.47	-0.466	-1.32	inactive
CA12	1.59	1.48	0.975	inactive
CDY2A	-0.575	0.698	-0.898	inactive
AKAP17BP	-0.0595	-0.661	-0.798	inactive
KCNS3	-1.76	-1.67	-0.805	inactive
XPO7	-0.114	1.85	-0.309	inactive
SLC4A11	-0.506	-0.579	-0.659	inactive
LOC440141 (retired record)	-1.55	-1.44	-1.84	inactive
FABP2	2.79	0.5	-2.33	inactive
PLIN2	0.944	1.18	1.28	inactive
ABRAXAS2	0.148	1.88	-1.08	inactive
RBM20	-0.355	-0.567	-0.438	inactive
TTYH2	-1.3	-1.08	-1.15	inactive

Already shown: entries from further up.
gene knocked down	robust z-score, replicate 1	robust z-score, replicate 2	robust z-score, replicate 3	call
LOC441306 (retired record)	0.901	1.35	1.16	inactive
KCNG2	-1.8	-1.55	-1.62	inactive
CDKN2A	0.693	0.255	0.793	inactive
SUMO3	1.49	2.2	1.06	inactive
TTR	-0.163	-2.05	-1.4	inactive
MKX	1.78	1.41	-0.0789	inactive
LPAR1	-0.376	-0.164	-0.12	inactive
IFNA1	1.14	1.79	0.895	inactive

Further records:
gene knocked down	robust z-score, replicate 1	robust z-score, replicate 2	robust z-score, replicate 3	call
CAD	0.945	0.469	-0.0843	inactive
LRRC8C-DT	1.48	1.22	1.6	inactive
COL4A4	1.09	-0.38	0.121	inactive
TMX4	0.208	-0.0494	-0.343	inactive
C8orf74	-0.285	-0.515	-0.473	inactive
GPR143	0.161	-0.733	0.0838	inactive
LINC00612	1.43	1.75	1.57	inactive
TAF1D	0.169	-0.457	-0.162	inactive
EIF3M	-1.09	-0.347	-0.919	inactive
LOC283804	2.42	2.6	2.29	active
ING2-DT	-0.595	-0.77	-0.578	inactive
DPF1	0.903	0.913	1.59	inactive
GNAS	0.459	-0.0816	0.682	inactive
LOC390217 (retired record)	0.228	-0.144	0.264	inactive
ZNF775	-0.99	-1.17	-1.18	inactive
PLA2G2D	-0.169	0.186	0.0256	inactive
ANKRD30B	-0.859	-0.298	-0.488	inactive
DUSP26	3.51	4.18	3.49	active
MED12L	-0.193	1.35	-0.722	inactive
PNN	1.25	0.999	2.33	inactive
SLC9A5	-0.369	-0.359	-0.235	inactive
SLC9A4	1.89	1.19	2.41	inactive
DYNLL1	0.335	0.833	-0.541	inactive
CFAP44	-1.6	0.0744	0.656	inactive
LOC441241	1.26	1.68	0.931	inactive
LOC440322 (retired record)	-0.219	-0.0502	-0.336	inactive
